Data published in paper PMC8588357.
No constants are given. Whether binding was seen depends on the method and setting.

Sequences of proteins named here, by UniProt entry; tags and fusion partners are left off. Residues count along the entry.
UniProt Q9P1W9, residues 2-311: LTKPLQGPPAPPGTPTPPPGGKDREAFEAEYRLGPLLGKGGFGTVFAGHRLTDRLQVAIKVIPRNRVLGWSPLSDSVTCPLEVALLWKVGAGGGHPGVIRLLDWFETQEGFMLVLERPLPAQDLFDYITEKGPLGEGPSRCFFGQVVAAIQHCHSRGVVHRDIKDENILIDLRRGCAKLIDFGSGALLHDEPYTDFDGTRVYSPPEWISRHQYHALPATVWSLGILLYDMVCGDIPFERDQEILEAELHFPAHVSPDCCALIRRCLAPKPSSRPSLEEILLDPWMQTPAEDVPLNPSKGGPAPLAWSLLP

Tests used:
[1] = molecular target: recombinant PIM2 (proviral integration site of Moloney virus-2 kinase) (human) (UniProt Q9P1W9); assay: SEC; 15 mg purified refolded rPIM2 on Sephacryl-200 HR 26/60; 50 mM Tris, 150 mM sodium chloride, pH 7.2; both purified
[2] = molecular target: recombinant PIM2 (proviral integration site of Moloney virus-2 kinase) (human) (UniProt Q9P1W9); assay: native gel or EMSA; refolded purified rPIM2 run on SDS-PAGE and on native-PAGE side by side, CBB staining; both purified

“recombinant PIM2 (proviral integration site of Moloney virus-2 kinase) (from UniProt Q9P1W9 2-311) (enzyme)” was tested, and the binding [1] was “no binding” and the binding [2] was “no binding”.
